Test results taken from patent publication US20150112425A1, “DELIVERY OF HIGHLY LIPOPHILIC AGENTS VIA MEDICAL DEVICES” (Abbott Laboratories, priority 2005, published 2015).
At least one compound was matched to its structure with a doubt left.

Tests used:
Assay type in all cases: physicochemical
[1] = Accelerated elution of dexamethasone from PC-coated stents at different zotarolimus ratios (FIG. 15); conditions: polyethylene glycol 660 solution pH 4, 37° C.
[2] = Transfer coefficient (P divided by S) of DES drugs (FIG. 21); conditions: P divided by equilibrium aqueous solubility S (μg/ml)
[3] = Elution from dip-loaded PC-coated stent (FIG. 14); conditions: after 24 hours
[4] = Six-hour elution from PC1036-coated coupons (FIG. 10-13); conditions: after 6 hours, in presence of zotarolimus, pH 7.4 PBS, 37° C.
Procedure: Prior to any experimentation, coated stainless steel coupons were prepared. These coupons were 316 L electropolished stainless steel discs (10 mm diameter). This size was chosen because the surface area of one side of the coupon is similar to the surface area of a 15-mm open cell BiodivYsio stent. […]. The cleaning was a two-step process in which the coupons are sonicated for 3 minutes in dichloromethylene and 3 minutes in ethanol. The coupons were allowed to dry at room temperature. One side of the coupon was coated using a filtered 20-mg/mL solution of phosphoryl choline polymer PC1036 (product of Biocompatibles Ltd., Farnham, Surrey, UK) in ethanol. Twenty μL PC solution was placed onto the coupon using a gas tight glass syringe, ensuring that the entire surface was coated but not spilling over the sides of the coupon. The coupons were initially air dried and then cured at 70° C. for 16 hours. They were then sent for gamma irradiation at <25KGy. […]
For each drug, six coupons were used to evaluate the total amount of drug loaded by the above procedure. […] The concentration of the drug in the extraction solution was analyzed by HPLC. […]
Six coated coupons of each drug were used for the elution experiments. […] The amount of drug in the elution samples was determined by HPLC.

Row | SMILES | Accelerated elution versus zotarolimus-to-dexamethasone ratio [1] | Transfer coefficient, rank order [2] | Amount released from PC-coated stent ([3]; no zotarolimus in the coating) | Amount released from PC-coated stent ([3]; stent containing zotarolimus) | Amount released from coupon [4]
1 | C[C@@H]1C[C@H]2[C@@H]3CCC4=CC(=O)C=C[C@]4(C)[C@@]3(F)[C@@H](O)C[C@]2(C)[C@@]1(O)C(=O)CO [Dexamethasone] | elution becomes increasingly slow with increasing zotarolimus concentration | zotarolimus>>paclitaxel>>rapamycin>dexamethasone | about 40% | almost no dexamethasone was released | 
2 | CC(C)OC(=O)C(C)(C)Oc1ccc(C(=O)c2ccc(Cl)cc2)cc1 [Fenofibrate] |  |  |  |  | about 7%
